PubChem BioAssay AID1053208 – Peter MacCallum Cancer Centre – 2014

- Screen: 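Synthetic lethal interactions between gene loss and doxorubicin in osteosarcoma cells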 (primary screen)
- Cells: mouse osteosarcoma cells, early-passage culture from an engineered mouse model of fibroblastic bone tumour
- Reagents: siRNA pool against mouse genes, 40 nM
- Timing: about 120 h (48 h before drug, then 72 h with drug)
- Challenge: doxorubicin 100 nM for 72 h, roughly 30-40% inhibitory dose
- Measured: 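Viability read as ATP luminescence after 72 h of 100 nM doxorubicin or none, duplicate wells averaged, scaled to non-targeting siRNA, then expressed as robust z-scores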
- Scale: viability z-score with doxorubicin and doxorubicin viability vs non-targeting: higher = more viable cells under doxorubicin; viability z-score without drug: higher = more viable cells with knock-down alone; z-score of drug to no-drug ratio: higher = less drug sensitisation by knock-down
- Hit rule: 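a pool counts as active when its viability z-score with doxorubicin is -2 or below and its z-score without drug lies between -2 and 2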
Here is one part, drawn at random, of about 17,000 deposited reagents. 788 of them (4.7%) count as active. 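Calls rest on z-score classes alone; an extra cut-off of viability at most 70% of control was not applied to them.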 Entries without a mark were called inactive. Reagents against one gene are numbered here.

combined z-score class | viability z-score with doxorubicin | viability z-score without drug | z-score of drug to no-drug ratio | doxorubicin viability vs non-targeting | Gene | pool no.
no change with or without drug | -0.34 | -0.84 | 0.34 | 0.91 | Nfrkb | 1
no change with or without drug | -1.35 | -0.51 | -1.01 | 0.82 | Btaf1 | 1
no change with or without drug | -0.45 | -1.01 | 0.34 | 0.9 | Ptger2 | 1
no change with or without drug | 1.35 | 1.85 | 0.22 | 1.06 | Glra4 | 1
no change with or without drug | 0.45 | -0.84 | 1.24 | 0.98 | Fundc1 | 1
no change with or without drug | 0.79 | 0.51 | 0.56 | 1.01 | Srst | 1
low cell count with and without drug | -2.47 | -4.89 | 1.24 | 0.72 | Arsj | 1
low cell count with doxorubicin only (active) | -2.02 | -1.52 | -1.12 | 0.76 | Tfb2m | 1
no change with or without drug | -0.22 | -0.17 | 0 | 0.92 | Sost | 1
no change with or without drug | -1.35 | 0.17 | -1.46 | 0.82 | Cops3 | 1
no change with or without drug | 1.12 | 0.51 | 0.9 | 1.04 | Abca16 | 1
high cell count without drug only | -0.22 | 2.36 | -1.57 | 0.92 | Ppp1r17 | 1
no change with or without drug | -0.22 | -0.67 | 0.34 | 0.92 | Dgcr6 | 1
no change with or without drug | 1.35 | 0.34 | 1.24 | 1.06 | Amelx | 1
low cell count with doxorubicin only (active) | -2.47 | -0.84 | -2.02 | 0.72 | Vmn2r89 | 1
no change with or without drug | -1.57 | -0.84 | -1.01 | 0.8 | Vmn2r89 | 2
no change with or without drug | 1.12 | 0.51 | 0.9 | 1.04 | Asb10 | 1
no change with or without drug | 1.8 | 1.01 | 1.24 | 1.1 | Cd84 | 1
no change with or without drug | -0.79 | -1.85 | 0.67 | 0.87 | Glrx2 | 1
no change with or without drug | 0 | -0.17 | 0.22 | 0.94 | Ammecr1 | 1
no change with or without drug | 0.22 | 0.67 | -0.11 | 0.96 | Nlk | 1
no change with or without drug | -0.22 | 0.84 | -0.67 | 0.92 | Clpb | 1
no change with or without drug | -1.12 | -0.84 | -0.56 | 0.84 | Gp1bb | 1
no change with or without drug | -1.57 | -0.51 | -1.24 | 0.8 | Rsu1 | 1
no change with or without drug | 1.35 | 1.18 | 0.67 | 1.06 | Prrc2b | 1
no change with or without drug | 0.45 | 0.17 | 0.45 | 0.98 | Ddx39b | 1
no change with or without drug | 0.9 | -0.17 | 1.24 | 1.02 | Dio3 | 1
no change with or without drug | -0.9 | 0.34 | -1.01 | 0.86 | Abl2 | 1
no change with or without drug | -1.69 | -0.67 | -1.24 | 0.79 | Slc16a2 | 1
low cell count with and without drug | -4.27 | -3.2 | -2.7 | 0.56 | Kmt5a | 1
no change with or without drug | 1.01 | 0.17 | 1.01 | 1.03 | Cyp2c37 | 1
no change with or without drug | -0.45 | -0.84 | 0.22 | 0.9 | Pld3 | 1
no change with or without drug | 0.22 | 1.85 | -0.79 | 0.96 | Tead4 | 1
no change with or without drug | 0.22 | 1.01 | -0.34 | 0.96 | BC023105 | 1

A portion taken from the entries so far, for reference:
combined z-score class | viability z-score with doxorubicin | viability z-score without drug | z-score of drug to no-drug ratio | doxorubicin viability vs non-targeting | Gene | pool no.
no change with or without drug | 0.45 | 0.17 | 0.45 | 0.98 | Ddx39b | 1
no change with or without drug | 0.9 | -0.17 | 1.24 | 1.02 | Dio3 | 1
no change with or without drug | -0.9 | 0.34 | -1.01 | 0.86 | Abl2 | 1
no change with or without drug | -1.69 | -0.67 | -1.24 | 0.79 | Slc16a2 | 1
low cell count with and without drug | -4.27 | -3.2 | -2.7 | 0.56 | Kmt5a | 1
